Results taken from PubChem BioAssay AID540256 (National Center for Advancing Translational Sciences (NCATS), 2011).
“And” between values parts separate entries of the source, which are not always exact repeats. Equal values may be shown once. In all, about 300,000 compounds went through this assay and about 3,700 (1.2%) were called active. Inconclusive results, whose numbers are uncertain, are shown with a selection of clear calls. Calls come from the whole dose curve; tested in HEK293 cells. Potencies beside an inconclusive call are fits to weak or partial responses and may not hold up.

Assay: qHTS for Inhibitors of binding or entry into cells for Lassa Virus; note: nearly all actives have a fitted effect of over 50% in size
Conditions: Lassa virus pseudotype entry inhibition, cell reporter; series mostly up to 37.9 µM
Potency is the fitted concentration of half-maximal effect.

Question: Which Potency does the source give for CCC(C(=O)NC1CCCC1)N(C(=O)Cn1nnc(-c2ccc(C)o2)n1)c1ccccc1OC (stereo not drawn) here?
Answer: The Potency was “inactive”.

Question: Which Potency does the source give for O=C(CCC1N=C2c3ccccc3N=C(SCc3ccccc3Cl)N2C1=O)NCc1cccs1 (stereo not drawn) here?
Answer: Its Potency is “inactive”.

Question: Which Potency does the source give for CCCCSCc1ccc(C(=O)O)o1 here?
Answer: The Potency was “inactive”.

Question: For O=C(C1CCCCC1)N(CCN1CCCC1)c1nc2ccccc2s1, which Potency is on record?
Answer: Its Potency is “inactive”.

Question: For O=C(Nc1ccc(F)cc1)C(Sc1nc2ccccc2[nH]1)c1ccccc1 (stereo not drawn), which Potency is on record?
Answer: Its Potency is “inactive”.

Question: Which Potency does the source give for CN1C2C=C3C(C#N)=C(N)C(C#N)(C#N)C(c4ccc(Br)cc4)C3C1CC2 (stereo not drawn) here?
Answer: Its Potency is “inactive”.

Question: Which Potency does the source give for COc1ccc(NC(=O)C#Cc2ccccc2)cc1 here?
Answer: Its Potency is inconclusive: 2.82 µM [inhibitor, partial curve, poor fit].

Question: Which Potency does the source give for CN(c1ccccc1)S(=O)(=O)c1cccc(C(=O)NC2CCCCC2)c1 here?
Answer: The Potency was inconclusive: 15.8 µM [inhibitor, partial curve].

Question: For CCN(CC)S(=O)(=O)c1cc(NC(=O)CSc2nc3c(cc2C#N)C(=O)CC(C)(C)C3)ccc1C, which Potency is on record?
Answer: The Potency was inconclusive: 35.5 µM [inhibitor, single point].

Question: For Cc1ccnc(NC(=O)COc2ccc3c(c2)CCC3)c1, which Potency is on record?
Answer: Its Potency is inconclusive: 11.2 µM [inhibitor, single point].

Question: With Fc1ccccc1C1c2[nH]c3ccccc3c2CCN1Cc1cccn1-c1ncccn1 (stereo not drawn) as the compound, how does the Potency read?
Answer: Its Potency is inconclusive: 6.31 µM [inhibitor, full curve, poor fit].

Question: For O=C(CSc1ccccn1)C12CC3CC(CC(C3)C1)C2, which Potency is on record?
Answer: Its Potency is inconclusive: 3.16 µM [inhibitor, full curve].

Question: Which Potency does the source give for Cc1cc(/C=C2\SC(=S)NC2=O)c(C)n1C1CC1 here?
Answer: Its Potency is inconclusive: 29.1 µM [activator, single point].

Question: Which Potency does the source give for CC(=O)NS(=O)(=O)c1ccc(NC(=O)C2C3C=CC(C3)C2C(=O)O)cc1 (stereo not drawn) here?
Answer: The Potency was inconclusive: 32.6 µM [activator, partial curve, poor fit].

Question: For COC(=O)c1c(C)oc2c1cc(NS(=O)(=O)c1c(C)cc(C)cc1C)c1ccccc12, which Potency is on record?
Answer: The Potency was inconclusive: 20 µM [inhibitor, single point].

Question: For Cc1ccc(S(=O)(=O)Nc2nc(C)c(C(=O)NN)s2)cc1, which Potency is on record?
Answer: Its Potency is inconclusive: 35.5 µM [activator, single point].

Question: With COc1cc2ccccc2cc1C(=O)OCC(=O)N(C)c1c(N)n(Cc2ccccc2)c(=O)[nH]c1=O as the compound, how does the Potency read?
Answer: The Potency was “inactive”.

Question: With NC1=NC(=Nc2cccc(Cl)c2)c2ccccc21 as the compound, how does the Potency read?
Answer: Its Potency is inconclusive: 29.1 µM [inhibitor, single point].

Question: With CCOC(=O)N1CCN(C(=O)CNC(=O)c2nn(-c3ccc(OC)cc3OC)c(=O)c3ccccc23)CC1 as the compound, how does the Potency read?
Answer: The Potency was “inactive”.

Question: Which Potency does the source give for Cc1ccc(NC(=O)CCc2c(C)nn(-c3ccc(N4CCCCC4)nn3)c2C)cc1F here?
Answer: Its Potency is “inactive and inconclusive: 1.58 µM [activator, partial curve, poor fit]”.

Question: For CS(=O)(=O)Nc1ccccc1C(=O)Nc1ccc2c(c1)OCCO2, which Potency is on record?
Answer: Its Potency is “inactive”.

Question: Which Potency does the source give for O=C1CC(c2ccccc2)=NN1c1ccc([N+](=O)[O-])cc1 here?
Answer: The Potency was inconclusive: 35.5 µM [inhibitor, single point].

Question: With Cc1cc(NC(=O)CCC(=O)N(CC(=O)NC2CCCC2)c2ccc(C(C)C)cc2)no1 as the compound, how does the Potency read?
Answer: The Potency was inconclusive: 5.01 µM [inhibitor, partial curve, poor fit].

Question: Which Potency does the source give for S=c1[nH]nc(-c2ccccn2)n1/N=C/c1c(Cl)cccc1Cl here?
Answer: The Potency was inconclusive: 35.5 µM [inhibitor, single point].

Question: For Cc1occc1C(=O)N/N=C/c1ccc(Cl)c([N+](=O)[O-])c1, which Potency is on record?
Answer: Its Potency is “inactive”.

Question: With CCCCN(C)CCNC(=O)c1cc2c(-c3ccccc3F)nn(C)c2s1 as the compound, how does the Potency read?
Answer: Its Potency is inconclusive: 20 µM [inhibitor, single point].

Question: Which Potency does the source give for CC(=O)Nc1ccc(S(=O)(=O)N2c3ccccc3C(C)=CC2(C)C)cc1 here?
Answer: Its Potency is inconclusive: 1.41 µM [inhibitor, full curve, poor fit].

Question: Which Potency does the source give for Fc1ccccc1CNc1nc(-c2cccnc2)nc2ccccc12 here?
Answer: Its Potency is inconclusive: 15.8 µM [inhibitor, partial curve, poor fit].

Question: Which Potency does the source give for Cc1ccc(CNC(=O)c2c[nH]c3ccc(S(=O)(=O)Nc4ccc(C(C)C)cc4)cc3c2=O)cc1 here?
Answer: The Potency was inconclusive: 1.78 µM [inhibitor, partial curve, poor fit].

Question: Which Potency does the source give for COc1ccc(/C=N/NC(=O)C2(O)c3ccccc3-c3ccccc32)cc1 here?
Answer: Its Potency is inconclusive: 15.8 µM [activator, partial curve, poor fit].

Question: For CN1CCC(N(C)S(=O)(=O)c2ccc(NC(=O)COc3ccc(Br)cc3Cl)cc2)CC1, which Potency is on record?
Answer: Its Potency is active: 6.31 µM.

Question: With Cc1cc(-c2ccc(N=Nc3ccc4c(S(=O)(=O)O)cc(S(=O)(=O)O)c(N)c4c3O)c(C)c2)ccc1N=Nc1ccc2c(S(=O)(=O)O)cc(S(=O)(=O)O)c(N)c2c1O as the compound, how does the Potency read?
Answer: Its Potency is inconclusive: 22.3 µM [inhibitor, partial curve, poor fit].

Question: Which Potency does the source give for CCCNc1nc(-c2ccccc2)c(C(=O)OCC)cc1C#N here?
Answer: The Potency was inconclusive: 8.91 µM [inhibitor, partial curve, poor fit].

Question: Which Potency does the source give for COc1ccc(C(=O)N(C)c2ccccc2C(=O)NCCc2ccccc2)cc1 here?
Answer: The Potency was active: 3.98 µM.

Question: With Cc1ccc(/C=N/NC(=O)c2nnn(-c3nonc3N)c2C)o1 as the compound, how does the Potency read?
Answer: The Potency was inconclusive: 22.4 µM [activator, single point].

Question: For CC(=O)c1ccc(OC(=O)N(C)c2ccccc2)cc1, which Potency is on record?
Answer: Its Potency is “inactive”.

Question: Which Potency does the source give for C(=C\c1ccccc1)/C=N/N1CCN(Cc2ccccc2)CC1 here?
Answer: Its Potency is inconclusive: 35.5 µM [inhibitor, single point].

Question: Which Potency does the source give for CC(C)Oc1ccc(C(=O)Nc2ccc3oc(-c4ccncc4)nc3c2)cc1 here?
Answer: The Potency was “inactive”.

Question: With COc1ccc(NC(=O)CSc2nc3n[nH]c(C)c3c(=N)n2-c2ccc(Cl)c(C)c2)cc1OC as the compound, how does the Potency read?
Answer: Its Potency is inconclusive: 35.5 µM [inhibitor, single point].

Question: For Cc1[nH]c2ccc(F)cc2c1CCNC(=O)c1cc2cc(Cl)ccc2oc1=O, which Potency is on record?
Answer: The Potency was “inactive”.

Question: Which Potency does the source give for COc1ccc(S(=O)(=O)NCC(c2cccs2)S(=O)(=O)c2ccc(C)cc2)cc1F (stereo not drawn) here?
Answer: The Potency was inconclusive: 10 µM [inhibitor, partial curve, poor fit].

Question: For O=C(CNC(=O)c1ccccc1)OC1CCCCC1, which Potency is on record?
Answer: Its Potency is inconclusive: 35.5 µM [inhibitor, single point].

Question: For COCCOC(=O)C1=C(C)NC(SCC(=O)NC(C)(C)C)=C(C#N)C1c1ccco1 (stereo not drawn), which Potency is on record?
Answer: Its Potency is “inactive”.

Question: With Cc1cc(N)nc(=O)n1C1CC(O)C(CO)O1 (stereo not drawn) as the compound, how does the Potency read?
Answer: Its Potency is inconclusive: 3.16 µM [inhibitor, partial curve, poor fit].

Question: Which Potency does the source give for CCc1ccc(-n2nc(C)c3c2NC(=O)CSC3c2ccccc2C)cc1 (stereo not drawn) here?
Answer: The Potency was inconclusive: 5.62 µM [activator, single point].

Question: Which Potency does the source give for CCOC(=O)c1[nH]c2ccc(OC)cc2c1C here?
Answer: The Potency was “inactive”.

Question: For O=c1n(Cc2ccc(F)cc2Cl)c2ccccc2c2nc(-c3ccccc3)nn12, which Potency is on record?
Answer: Its Potency is “inactive”.

Question: Which Potency does the source give for CC(C)c1ccc(NC(=S)NNC(=O)c2cccs2)cc1 here?
Answer: The Potency was “inactive”.

Question: For Clc1cccc(Cl)c1CNC1CCCC1, which Potency is on record?
Answer: The Potency was inconclusive: 1.83 µM [inhibitor, partial curve].

Question: With O=C(NCc1cccnc1)c1ccc(CS(=O)(=O)c2ccc(Cl)cc2)o1 as the compound, how does the Potency read?
Answer: Its Potency is inconclusive: 10 µM [inhibitor, partial curve, poor fit].

Question: With CCCc1nc2sc3c(c2c(=O)n1NC(=O)CCC(=O)OC)CCCC3 as the compound, how does the Potency read?
Answer: The Potency was “inactive”.

Question: For CCN(CC)S(=O)(=O)c1ccc(NC(=O)Cc2cccs2)cc1, which Potency is on record?
Answer: The Potency was inconclusive: 15.8 µM [inhibitor, partial curve, poor fit].

Question: With COc1cccc(C(=O)Nc2ccc(NC(=O)Cc3ccccc3)cc2)c1 as the compound, how does the Potency read?
Answer: The Potency was “inactive”.

Question: With O=S(=O)(Nc1ccc(NS(=O)(=O)c2ccccc2)c(Cl)c1)c1ccccc1 as the compound, how does the Potency read?
Answer: Its Potency is inconclusive: 2.24 µM [inhibitor, full curve, poor fit].

Question: With COc1ccccc1NC(=O)C(C)OC(=O)CCCc1c[nH]c2ccccc12 (stereo not drawn) as the compound, how does the Potency read?
Answer: Its Potency is inconclusive: 15.8 µM [inhibitor, single point].

Question: With COc1ccc(N(C(=O)COc2ccccc2OC)S(=O)(=O)c2ccc(C)cc2)cc1 as the compound, how does the Potency read?
Answer: The Potency was inconclusive: 35.5 µM [inhibitor, single point].

Question: With Cn1ccc2c(-c3ccc(C(=O)O)cc3)cc3c(c21)C1CCC3C1 (stereo not drawn) as the compound, how does the Potency read?
Answer: Its Potency is inconclusive: 25 µM [activator, partial curve].

Question: For O=[N+]([O-])c1cc(S(=O)(=O)Nc2cccc(Cl)c2)ccc1N=Nc1c(O)[nH]c2ccccc12, which Potency is on record?
Answer: The Potency was active: 11.2 µM.

Question: For COc1ccc(N2CCN(CCNC(=O)c3ccc4c(c3)[nH]c(=S)n3c5ccccc5nc43)CC2)cc1, which Potency is on record?
Answer: The Potency was “inactive”.

Question: With COc1ccc(N2CCN(C3=CC(=O)N(c4cccc(Cl)c4)C3=O)CC2)cc1 as the compound, how does the Potency read?
Answer: Its Potency is inconclusive: 1.26 µM [activator, single point].

Question: With CN(C)S(=O)(=O)c1ccc(NC(=O)C2CC(=O)N(Cc3ccccc3)C2)cc1 (stereo not drawn) as the compound, how does the Potency read?
Answer: Its Potency is inconclusive: 35.5 µM [inhibitor, single point].

Question: Which Potency does the source give for CC1Cc2ccccc2N1C(=O)COC(=O)c1ccc([N+](=O)[O-])o1 (stereo not drawn) here?
Answer: The Potency was “inactive”.

Question: With Cc1ccc(NC2CCCN(C(=O)CCc3ccncc3)C2)cc1C (stereo not drawn) as the compound, how does the Potency read?
Answer: Its Potency is “inactive”.

Question: Which Potency does the source give for COc1cccc(-c2noc(-c3ccc(Cl)nc3)n2)c1 here?
Answer: Its Potency is inconclusive: 22.4 µM [inhibitor, single point].

Question: For O=C(Nc1nc2ccccc2[nH]1)c1ccc(Br)o1, which Potency is on record?
Answer: Its Potency is inconclusive: 15.8 µM [inhibitor, single point].

Question: For CCOc1ccc(-c2nc(C#N)c(NCc3ccc4c(c3)OCO4)o2)cc1, which Potency is on record?
Answer: The Potency was “inactive”.

Question: With Cc1ccc(-c2nc3cc(N)ccc3o2)cc1 as the compound, how does the Potency read?
Answer: The Potency was inconclusive: 14.6 µM [inhibitor, partial curve, poor fit].

Question: For O=C(c1ccco1)N1CCN(c2nc(C3CC3)nc3c2nnn3Cc2ccccc2Cl)CC1, which Potency is on record?
Answer: Its Potency is inconclusive: 11.2 µM [inhibitor, partial curve, poor fit].
